Results published in PubChem BioAssay AID493014 (National Center for Advancing Translational Sciences (NCATS), 2011).
“And” between values parts separate entries of the source, which are not always exact repeats. Identical values can stand only once. The list shows a part of the results. These are further read-outs of the screen, such as a control signal, another cell line or another target. No call is given for them. The list favours compounds with an active or inconclusive main result. Potencies come from curve fits of mixed quality, noted in brackets.

Assay: qHTS Assay to Find Inhibitors of Chronic Active B-Cell Receptor Signaling
Details: ABC-DLBCL IkBa-CBG/CBR reporter, luminescence ratio (green luciferase fused to IkBa over red control in TMD8 lymphoma cells), 4 h
Outline: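 Concentration-response series (up to 46 uM) were applied to TMD8 dual-reporter cells for 4 h at 37C with doxycycline. Green/red ratio, after filter-overlap correction, defined %Activity; red signal alone was normalised to basal cells and zero luminescence.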

[1] = measured here: CBR red luminescence, cell number

| Compound | AC50 [1] | AC50 (measured here: IkBa-CBG green luminescence) |
| --- | --- | --- |
| CCOC(=O)c1c(C)[nH]c(C(=O)OCC(=O)N(CC(C)C)C2CCS(=O)(=O)C2)c1C (stereo not drawn) | 16.4 µM [falling, partial curve, poor fit] |  |
| COc1ccc(-c2nn(CC(=O)N(C)C)c(=O)c3ccccc23)cc1 | 25.9 µM [rising, single point] |  |
| Cc1nc2ccccn2c1-c1ccnn1S(=O)(=O)c1ccc(F)cc1 | 35.5 µM [falling, single point] |  |
| COC(=O)C1=C(C(=O)OC)[C@@H]2Nc3ccccc3[C@@]23C[C@@H](C(=O)OC)N(C(=O)c2ccc(Br)cc2)C3=N1 | 35.5 µM [rising, partial curve, poor fit] |  |
| CCCc1cc2c(cc1NS(=O)(=O)c1ccc(CCNC(C)=O)cc1)OCO2 | 0.708 µM [falling, partial curve] |  |
| Cc1cc(/C=C2/NC(=O)N(Cc3ccccc3F)C2=O)c(C)n1-c1ccccn1 | 23.1 µM [falling, single point] |  |
| Cn1c(-c2ccc3c(c2)OCO3)cnc1NCc1ccc(Cl)cc1 | 0.411 µM [rising, partial curve, poor fit] |  |
| CSc1ccccc1NC(=O)CSc1nnnn1-c1ccccc1SC | 1.16 µM [falling, full curve, poor fit] |  |
| COc1ccccc1CCN1C(=S)NC(C)(C)CC1(C)O (stereo not drawn) | 11.2 µM [falling, partial curve, poor fit] |  |
| O=C(Cn1ncc2c(=O)oc3ccccc3c21)NC1CC1 | 28.2 µM [falling, single point] |  |
| CCN(C(=O)CN1CCCCCC1)c1c(N)n(Cc2ccccc2)c(=O)[nH]c1=O | 29.1 µM [falling, partial curve, poor fit] |  |
| O=C(CCc1nnc(-c2ccccc2)o1)c1ccc(Cl)cc1 | 6.31 µM [rising, single point] |  |
| Cc1cccc(C(=O)NNC(=O)c2ccc(O)cc2)c1 | 10 µM [falling, partial curve] |  |
| O=c1[nH]c2ccccc2nc1/C=C/c1ccc(Cl)cc1 | 0.316 µM [falling, full curve, poor fit] |  |
| O=c1nc(-c2ccccc2)cc(C(F)(F)F)[nH]1 | 3.55 µM [rising, single point] |  |
| O=C1CC(Sc2ncn[nH]2)C(=O)N1c1ccccc1 (stereo not drawn) | 23.1 µM [falling, single point] |  |
| CS(=O)(=O)c1ccc(C(=O)CN2C(=O)NC3(CCCc4ccccc43)C2=O)cc1 (stereo not drawn) | 6.51 µM [rising, single point] |  |
| COc1cccc2cc(C(=O)CS(=O)(=O)c3ccc(Cl)cc3)c(=O)oc12 | 35.5 µM [falling, single point] |  |
| O=C(CSc1ccc(-c2ccc(Cl)cc2)nn1)N1CCCc2ccccc21 | 23.1 µM [falling, partial curve] |  |
| Cc1ccccc1OCC(=O)OCC(=O)Nc1ccc(Cl)cn1 | 23.1 µM [rising, partial curve, poor fit] |  |
| O=C(Nc1ccc(OCc2ccccc2)cc1)c1cccs1 | 8.91 µM [rising, partial curve, poor fit] |  |

| Compound | AC50 [1] | AC50 (measured here: IkBa-CBG green luminescence) |
| --- | --- | --- |
| CC1(C)C2CCC1(CS(=O)(=O)NC1CCCC1)C(=O)C2 (stereo not drawn) | 22.4 µM [falling, partial curve, poor fit] |  |
| CC[C@]12c3[nH]c4cc(CCC(=O)N(C)C)ccc4c3CCN1C(=O)[C@@H](CC(=O)NCCc1ccccn1)C[C@@H]2C(=O)N1CCN(C(=O)c2ccco2)CC1 | 29.1 µM [rising, single point] |  |
| COc1cccc(C2C3=C(CC(C)(C)CC3=O)Nc3cc4c(cc32)OCO4)c1 (stereo not drawn) | 4.61 µM [falling, full curve, poor fit] |  |
| COc1ccc(NC(=O)CSCC(=O)N(C)Cc2c(F)cccc2Cl)cc1 | 14.6 µM [rising, partial curve] |  |
| COC(=O)c1ccccc1NC(=O)c1c(O)c2c([nH]c1=O)CCCC2 | 0.103 µM [rising, full curve, poor fit] |  |
| CC1=NN(c2ccc(C)cc2C)C(=O)C1C(c1cccc(O)c1)C1C(=O)N(c2ccc(C)cc2C)N=C1C (stereo not drawn) | 29.1 µM [falling, single point] |  |
| CC(C)OC(=O)c1cccc(NC(=O)c2ccccc2)c1 | 29.1 µM [falling, single point] |  |
| CCOc1ccc(CSC2=NCCN2)cc1[N+](=O)[O-] |  | 20.6 µM [falling, partial curve, poor fit] |
| CC1(C)CCCN(Cc2c(O)ccc3c(=O)c(-c4nc5ccccc5s4)c(N)oc23)C1 | 1.26 µM [falling, partial curve, poor fit] |  |
| COc1ccccc1-n1nnnc1SCC(=O)Nc1ccc(C)c(N)c1 | 31.6 µM [falling, single point] |  |
| CCC(C)[C@H](NC(=O)NCc1ccccc1Cl)C(=O)OC (stereo partly drawn) | 35.5 µM [falling, partial curve, poor fit] |  |
| CC(C)(C)NC(=S)N1CCC(C(=O)c2ccc(Cl)cc2)CC1 | 7.94 µM [rising, partial curve, poor fit] |  |
| O=c1c2c(-c3ccccc3)ccnc2[nH]n1-c1ccccc1 | 1.78 µM [falling, full curve] and 3.98 µM [falling, full curve] |  |
| COc1cccc(C2NC(=O)CCC2[N+](=O)[O-])c1OC (stereo not drawn) | 3.98 µM [rising, partial curve, poor fit] |  |
| COc1ccc(CN(C)C(=O)c2cccc(S(=O)(=O)N3CCN(c4ccccc4)CC3)c2)c(OC)c1OC | 25.9 µM [falling, partial curve, poor fit] |  |
| O=C(c1cccc(S(=O)(=O)NCc2ccccc2)c1)N1CCCC1 | 7.94 µM [rising, partial curve] |  |
| COC(=O)CCC(=O)COc1ccccc1C#N | 10 µM [rising, partial curve] |  |
| CC(/C=C/c1ccccc1F)=N\NC(=O)c1cccc(F)c1 | 22.4 µM [falling, partial curve] |  |
| O=C(Nc1cccc(Oc2ccc3c(c2)C(=O)NC3=O)c1)c1ccco1 | 9.2 µM [falling, partial curve] |  |
| COc1ccccc1C(=O)Oc1ccc2c(c1)O/C(=C\c1ccncc1)C2=O | 23.1 µM [falling, single point] |  |
| O=C(NC1CCCCC1)c1ccc2c(c1)N(Cc1ccccc1)C(=O)c1ccccc1S2 | 28.2 µM [falling, partial curve, poor fit] |  |

| Compound | AC50 [1] | AC50 (measured here: IkBa-CBG green luminescence) |
| --- | --- | --- |
| COc1ccc(N2CCCC2)c(NC(=O)COc2ccccc2Cl)c1 | 1.78 µM [falling, full curve, poor fit] |  |
| COc1ccccc1Nc1cc(C(=O)N2CCc3ccccc3C2)c2ccccc2n1 | 11.2 µM [falling, partial curve, poor fit] |  |
| Cc1nc2ccc(NC(=O)N3CCOCC3)cc2s1 | 29.1 µM [rising, single point] |  |
| CC(=O)Oc1oc(-c2ccccc2)nc1/C=N/c1ccccn1 | 7.94 µM [falling, partial curve, poor fit] |  |
| O=C(O)COc1ccc(/C=C/c2nc3ccc([N+](=O)[O-])cc3s2)cc1 | 0.316 µM [falling, full curve] |  |
| CCC(C)NS(=O)(=O)c1cccs1 (stereo not drawn) | 0.517 µM [falling, partial curve, poor fit] |  |
| CCc1ccc(OCC(=O)N/N=C\c2ccco2)c([N+](=O)[O-])c1 | 29.1 µM [rising, single point] |  |
| COc1ccc2cc(-c3cc(C(=O)OCC(=O)Nc4c(C)n(C)n(-c5ccccc5)c4=O)c4ccccc4n3)ccc2c1 | 20.6 µM [rising, single point] |  |
| Cc1ccc(S(=O)(=O)/N=C2\C=C(Nc3cccc(C(=O)O)c3)C(=O)c3ccccc32)c(C)c1 | 4.47 µM [falling, full curve, poor fit] |  |
| CSc1nsc(NC(=O)OCc2ccc(Cl)cc2)n1 | 7.08 µM [falling, partial curve] |  |
| COc1ccc2cc(CN(CC3COCCO3)S(=O)(=O)c3ccc(Cl)cc3)c(=O)[nH]c2c1 (stereo not drawn) | 10 µM [rising, partial curve, poor fit] |  |
| CCn1c(SC(C)C(=O)O)nnc1-c1cccnc1 (stereo not drawn) | 2.06 µM [rising, partial curve] |  |
| Cc1ccccc1C(OCC(O)CN1CCCCC1CCO)c1ccccc1 (stereo not drawn) | 11.2 µM [falling, partial curve] |  |
| O=C(C1=COCCO1)N1CCN(S(=O)(=O)c2cccc(F)c2)CC1 | 0.103 µM [rising, full curve, poor fit] |  |
| CC(NC(=O)COc1ccccc1)C(c1ccccc1)N1CCN(C)CC1 (stereo not drawn) | 0.282 µM [rising, full curve] |  |
| CN(C(=O)COC(=O)c1ccc2c(c1)OCO2)C1CCCCC1 | 29.1 µM [rising, single point] |  |
| COc1ccccc1/C=C1\SC(=O)N(CCC(=O)N2CCCCC2CCO)C1=O (stereo not drawn) | 11.2 µM [falling, partial curve, poor fit] |  |
| COc1ccccc1/C=N/NC(=O)C(=O)Nc1ccccc1OC(F)(F)C(F)F | 16.4 µM [falling, partial curve] |  |
| COc1ccccc1N(CC(=O)Nc1ccc(C)cc1Cl)S(=O)(=O)c1cccs1 | 29.1 µM [falling, single point] |  |
| CCOc1ccccc1C1C(C(=O)Nc2ccccc2OC)=C(C)Nc2nc(CCCO)nn21 (stereo not drawn) | 29.1 µM [rising, single point] |  |
| CCOC(=O)NC(CC(=O)O)c1ccc(OC)c(OC)c1 (stereo not drawn) | 6.51 µM [rising, partial curve, poor fit] |  |
